Measured values taken from publication PMC10897894.
Results are given in words; binding and its absence hold for the method and conditions named. Some entries that bind do so weakly or less than the wild type.

Amino acid sequences for entries named in this document (tags omitted).
UniProt P46527: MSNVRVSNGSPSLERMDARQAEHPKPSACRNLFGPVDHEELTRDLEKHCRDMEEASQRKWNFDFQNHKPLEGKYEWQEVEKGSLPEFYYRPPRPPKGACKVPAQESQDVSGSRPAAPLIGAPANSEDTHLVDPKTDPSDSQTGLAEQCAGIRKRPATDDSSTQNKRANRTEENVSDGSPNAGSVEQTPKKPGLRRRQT
UniProt Q9HCE7: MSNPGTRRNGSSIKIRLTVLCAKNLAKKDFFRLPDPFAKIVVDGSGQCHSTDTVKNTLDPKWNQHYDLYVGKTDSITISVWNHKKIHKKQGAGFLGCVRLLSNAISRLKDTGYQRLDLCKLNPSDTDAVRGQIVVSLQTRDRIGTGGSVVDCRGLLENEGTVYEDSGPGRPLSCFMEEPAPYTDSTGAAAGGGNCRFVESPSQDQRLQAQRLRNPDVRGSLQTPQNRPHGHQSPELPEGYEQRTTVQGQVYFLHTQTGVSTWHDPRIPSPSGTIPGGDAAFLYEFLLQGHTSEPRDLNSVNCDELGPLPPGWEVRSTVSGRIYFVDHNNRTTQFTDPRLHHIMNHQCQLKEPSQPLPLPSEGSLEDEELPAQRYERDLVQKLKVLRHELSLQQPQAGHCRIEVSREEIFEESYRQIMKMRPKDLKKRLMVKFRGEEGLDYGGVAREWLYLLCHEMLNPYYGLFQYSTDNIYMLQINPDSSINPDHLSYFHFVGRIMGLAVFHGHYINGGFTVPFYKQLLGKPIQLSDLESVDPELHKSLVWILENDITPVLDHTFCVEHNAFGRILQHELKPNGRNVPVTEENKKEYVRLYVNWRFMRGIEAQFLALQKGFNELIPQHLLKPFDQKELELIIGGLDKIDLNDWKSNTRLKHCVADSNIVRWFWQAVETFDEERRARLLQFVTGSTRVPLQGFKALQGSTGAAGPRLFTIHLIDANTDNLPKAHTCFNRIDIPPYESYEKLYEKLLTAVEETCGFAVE

Target: (His)6-p27 (UniProt P46527)
Test: pull-down; FLAG-SMURF1 rocked with (His)6-p27 and BSA-blocked Ni-NTA beads, 4 °C, 2 h, 40 mM Tris pH 7.6, 5 mM MgCl2, 2 mM DTT; beads washed 5x; Western blot for SMURF1 and p27; both purified

binding: binds
Substance: FLAG-SMURF1 (from UniProt Q9HCE7 1-757) (enzyme)
